From article doi:10.1101/2020.02.14.949644
No constants are given. Whether binding was seen depends on the method and setting. Binding seen in cells or lysates may run through a third protein. Some binding calls cover weakened binding; strength is not graded here. Tags and fused reporters may be left off the sequences shown.

Protein sequences, listed by entry. Tags and fused reporters are not part of them.
UniProt P49792: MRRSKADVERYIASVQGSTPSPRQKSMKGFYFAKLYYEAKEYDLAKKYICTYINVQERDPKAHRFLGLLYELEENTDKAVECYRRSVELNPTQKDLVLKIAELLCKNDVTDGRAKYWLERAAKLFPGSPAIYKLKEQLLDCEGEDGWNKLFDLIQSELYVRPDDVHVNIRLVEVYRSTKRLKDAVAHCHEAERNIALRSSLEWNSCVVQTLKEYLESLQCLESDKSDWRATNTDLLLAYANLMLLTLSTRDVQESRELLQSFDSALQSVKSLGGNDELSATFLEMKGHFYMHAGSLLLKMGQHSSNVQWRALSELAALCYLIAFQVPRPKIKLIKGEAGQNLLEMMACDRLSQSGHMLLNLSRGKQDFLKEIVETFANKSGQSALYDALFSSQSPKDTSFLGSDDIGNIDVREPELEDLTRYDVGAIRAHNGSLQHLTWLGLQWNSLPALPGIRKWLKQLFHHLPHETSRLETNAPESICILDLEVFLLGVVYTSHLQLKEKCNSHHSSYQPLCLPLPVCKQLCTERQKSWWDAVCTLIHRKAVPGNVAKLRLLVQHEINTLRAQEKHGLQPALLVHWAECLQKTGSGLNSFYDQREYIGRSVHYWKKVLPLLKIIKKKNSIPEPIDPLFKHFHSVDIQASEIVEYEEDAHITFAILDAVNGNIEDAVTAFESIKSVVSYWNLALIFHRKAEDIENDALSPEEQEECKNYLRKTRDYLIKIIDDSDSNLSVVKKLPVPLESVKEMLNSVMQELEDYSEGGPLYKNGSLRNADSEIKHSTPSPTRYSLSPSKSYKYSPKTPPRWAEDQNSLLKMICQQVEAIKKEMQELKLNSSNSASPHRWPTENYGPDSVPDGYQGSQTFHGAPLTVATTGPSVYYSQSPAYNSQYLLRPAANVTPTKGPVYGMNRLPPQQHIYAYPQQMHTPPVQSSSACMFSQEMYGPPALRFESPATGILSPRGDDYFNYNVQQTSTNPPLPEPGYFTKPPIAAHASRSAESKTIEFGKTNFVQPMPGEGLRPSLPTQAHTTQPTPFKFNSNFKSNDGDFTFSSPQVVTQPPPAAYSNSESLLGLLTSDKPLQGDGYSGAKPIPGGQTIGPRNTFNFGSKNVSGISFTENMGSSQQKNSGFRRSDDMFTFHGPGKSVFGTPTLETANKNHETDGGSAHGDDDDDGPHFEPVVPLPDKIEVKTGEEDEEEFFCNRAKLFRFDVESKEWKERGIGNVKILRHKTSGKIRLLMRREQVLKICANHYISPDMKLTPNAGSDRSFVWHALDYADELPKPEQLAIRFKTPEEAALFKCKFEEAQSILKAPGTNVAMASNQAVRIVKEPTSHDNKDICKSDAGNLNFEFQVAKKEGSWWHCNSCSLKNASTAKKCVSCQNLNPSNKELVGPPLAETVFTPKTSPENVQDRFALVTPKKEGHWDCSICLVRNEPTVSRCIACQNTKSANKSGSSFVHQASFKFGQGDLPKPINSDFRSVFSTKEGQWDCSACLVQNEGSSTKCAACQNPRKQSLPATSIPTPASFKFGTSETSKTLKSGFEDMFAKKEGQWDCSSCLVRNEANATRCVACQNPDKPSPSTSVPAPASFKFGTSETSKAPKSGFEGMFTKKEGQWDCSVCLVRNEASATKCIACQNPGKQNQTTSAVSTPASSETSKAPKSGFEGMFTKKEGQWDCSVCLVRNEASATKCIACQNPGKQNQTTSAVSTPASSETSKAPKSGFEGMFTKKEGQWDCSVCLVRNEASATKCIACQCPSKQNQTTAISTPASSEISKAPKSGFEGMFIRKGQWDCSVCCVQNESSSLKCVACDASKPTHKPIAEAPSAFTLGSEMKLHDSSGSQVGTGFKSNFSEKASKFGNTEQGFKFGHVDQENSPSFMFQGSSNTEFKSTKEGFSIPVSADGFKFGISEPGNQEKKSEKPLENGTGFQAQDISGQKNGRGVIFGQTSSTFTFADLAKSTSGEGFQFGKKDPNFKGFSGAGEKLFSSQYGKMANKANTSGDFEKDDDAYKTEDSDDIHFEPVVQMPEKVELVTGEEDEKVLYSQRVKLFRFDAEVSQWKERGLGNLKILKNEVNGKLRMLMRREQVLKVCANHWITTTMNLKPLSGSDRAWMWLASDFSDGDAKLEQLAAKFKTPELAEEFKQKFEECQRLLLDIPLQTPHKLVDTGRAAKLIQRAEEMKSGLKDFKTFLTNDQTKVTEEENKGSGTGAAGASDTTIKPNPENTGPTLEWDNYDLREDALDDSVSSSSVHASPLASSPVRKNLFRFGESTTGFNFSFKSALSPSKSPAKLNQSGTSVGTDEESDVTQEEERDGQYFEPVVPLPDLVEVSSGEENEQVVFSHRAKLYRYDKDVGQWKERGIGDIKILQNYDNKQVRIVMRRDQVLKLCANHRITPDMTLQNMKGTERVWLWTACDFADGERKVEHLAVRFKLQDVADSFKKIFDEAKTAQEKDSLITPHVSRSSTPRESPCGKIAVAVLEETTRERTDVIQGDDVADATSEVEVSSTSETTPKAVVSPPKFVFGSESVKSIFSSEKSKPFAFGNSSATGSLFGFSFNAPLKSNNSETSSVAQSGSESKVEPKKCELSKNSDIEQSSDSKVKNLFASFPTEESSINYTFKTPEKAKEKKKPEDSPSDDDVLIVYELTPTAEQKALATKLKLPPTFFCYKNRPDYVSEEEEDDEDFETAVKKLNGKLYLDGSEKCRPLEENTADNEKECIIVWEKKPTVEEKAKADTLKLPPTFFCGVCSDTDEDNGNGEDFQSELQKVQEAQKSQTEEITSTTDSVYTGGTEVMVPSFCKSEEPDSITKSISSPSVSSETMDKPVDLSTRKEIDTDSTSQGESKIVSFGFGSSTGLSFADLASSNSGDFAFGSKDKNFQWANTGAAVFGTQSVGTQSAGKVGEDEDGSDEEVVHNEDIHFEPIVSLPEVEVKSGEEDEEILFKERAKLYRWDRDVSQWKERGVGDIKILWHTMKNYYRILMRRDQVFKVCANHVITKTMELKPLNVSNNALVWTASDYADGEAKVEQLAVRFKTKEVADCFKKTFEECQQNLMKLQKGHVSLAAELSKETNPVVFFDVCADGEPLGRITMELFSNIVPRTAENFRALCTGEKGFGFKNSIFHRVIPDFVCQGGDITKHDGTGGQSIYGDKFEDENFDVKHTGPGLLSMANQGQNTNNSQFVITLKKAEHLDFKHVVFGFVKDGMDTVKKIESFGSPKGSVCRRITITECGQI

Columns and labels:
[1] = target: HA-tagged RanBP2 (HA-RanBP2) (UniProt P49792); experiment: co-IP
[2] = target: HA-tagged RanBP2 (HA-RanBP2) (UniProt P49792); experiment: proximity ligation

binding [1]: binds | binding [2]: binds
B1: Flag-tagged human DNA polymerase lambda (Flag-Polλ WT) (enzyme, UniProt Q9UGP5 1-575)
chain: MDPRGILKAFPKRQKIHADASSKVLAKIPRREEGEEAEEWLSSLRAHVVRTGIGRARAELFEKQIVQHGGQLCPAQGPGVTHIVVDEGMDYERALRLLRLPQLPPGAQLVKSAWLSLCLQERRLVDVAGFSIFIPSRYLDHPQPSKAEQDASIPPGTHEALLQTALSPPPPPTRPVSPPQKAKEAPNTQAQPISDDEASDGEETQVSAADLEALISGHYPTSLEGDCEPSPAPAVLDKWVCAQPSSQKATNHNLHITEKLEVLAKAYSVQGDKWRALGYAKAINALKSFHKPVTSYQEACSIPGIGKRMAEKIIEILESGHLRKLDHISESVPVLELFSNIWGAGTKTAQMWYQQGFRSLEDIRSQASLTTQQAIGLKHYSDFLERMPREEATEIEQTVQKAAQAFNSGLLCVACGSYRRGKATCGDVDVLITHPDGRSHRGIFSRLLDSLRQEGFLTDDLVSQEENGQQQKYLGVCRLPGPGRRHRRLDIIVVPYSEFACALLYFTGSAHFNRSMRALAKTKGMSLSEHALSTAVVRNTHGCKVGPGRVLPTPTEKDVFRLLGLPYREPAERDW
